From patent US4550116A, “Piperidine derivatives” (Fordonal, S.A., priority 1983, dated 1985)

Tested on: rat hindquarters
Assay: Rat hindquarter preparation, responses to high-K+ Krebs' solution
Method: A Rat hindquarter preparation
Responses of rat hindquarters perfused at constant rate were elicited by high -K^+ (80 mM) Krebs' solution. Test compounds (10^-7 M) were perfused for 20 minutes and then compound-free Krebs' perfusion was resumed for 40 min.

CC(C)(C)c1ccc(C(=O)CCCN2CCC(OC(c3ccccc3)c3ccccc3)CC2)cc1 [Compound 1, 4-diphenylmethoxy-1-[3-(4-tert-butylbenzoyl)propyl]-piperidine]
duration of anti-vasoconstrictor effects, compared with terfenadine and cinnarizine (in vitro, rat hindquarter preparation): much longer lasting
TEST A RAT HINDQUARTERS % Inhibition (maximum percentage inhibition, 10^-7 M perfused for 20 minutes, 80 mM K+): 70%
directly acting anti-vasoconstrictor activity (rat hindquarter preparation): potent
